Our source for the binding values is paper PMC6297230, “Structural basis of meiotic telomere attachment to the nuclear envelope by MAJIN-TERB2-TERB1” (Nature Communications, 2018).

Results are given in words; binding and its absence hold for the method and conditions named. A result given as binding can be weak or reduced; the word gives no strength. For some assays here: In cells and extracts the contact can be indirect.

The target of assay [1] is MAJIN N-terminal structural core (amino acids 1–112) (human). The experiment in a line: SEC-SAXS; purified complexes at > 10 mg/ml on Superdex 200 Increase 10/300 GL in 20 mM Tris pH 8.0, 250 mM KCl; ab initio, rigid body and multi-phase modelling; both purified. (SEC sorts molecules by how far they enter the pores of the column.)
The target is the same in assay [2]. Put plainly: crystal structure; MAJIN 1-112 with TERB2 168-220, selenomethionine derivative, SAD, spacegroup P3_(2)21, 2.90 Å; 2:2 heterotetramer in the asymmetric unit; co-expressed and co-purified complex; both purified.
The target in assay [3] is MAJIN core, truncated (amino acids 1–106) (human). The experiment in a line: SEC-SAXS; purified complexes at > 10 mg/ml on Superdex 200 Increase 10/300 GL in 20 mM Tris pH 8.0, 250 mM KCl; ab initio, rigid body and multi-phase modelling; both purified.
For assay [4], the target named is MAJINΔTM (amino acids 1–233) (human). The description is as above.
Assay [5] deals with MAJIN core, truncated (amino acids 1–106) (human). The experiment in a line: crystal structure; MAJIN 1-106 with TERB2 168-207, molecular replacement, spacegroup C222_(1), 1.85 Å; 2:2 heterotetramer in the asymmetric unit; co-expressed and co-purified complex; both purified.
Assay [6] addresses MAJIN_(Core+BP1)–TERB2–TERB1_(TRFB) complex harbouring the TERB1 T648E mutation (human). The experiment in a line: SEC; purified MAJIN(Core+BP1)-TERB2–TERB1(TRFB) complex, WT or T648E, incubated with a stoichiometric amount of TRF1 TRFH; elution profiles; both purified.
Assay [7] deals with MBP-fusion MAJINΔTM-TERB2–TERB1_(TRFB) complex (human). The experiment in a line: pull-down; amylose resin; MBP-fusion MAJINΔTM–TERB2–TERB1 complex (2 µM), with or without pre-incubation with plasmid dsDNA (20 µM per base pair), then TRF1 TRFH (4 µM); 20 mM Tris pH 8.0, 250 mM KCl, 10 mg/ml BSA, 4 °C; both purified.

B1: TERB2 C-terminus (amino acids 168–220) (domain or fragment, UniProt Q8NHR7 168-220)
chain: PVNNMVTGYISIDAMKKFLGELHDFIPGTSGYLAYHVQNEINMSAIKNKLKRK
With B1, the binding result in assay [1] and in assay [2] was “binds” throughout.

Turning to PVNNMVTGYISIDAMKKFLGELHDFIPGTSGYLAYHVQNE (domain or fragment, UniProt Q8NHR7 168-207) [TERB2 C-terminus, truncated (amino acids 168–207)], the binding entry in assay [3], in assay [4] and in assay [5] was “binds” in each case.

B2: TRF homology domain of TRF1 (amino acids 62–268) (domain or fragment, human, UniProt P54274 62-268, looked up)
chain: EDAGLVAEAEAVAAGWMLDFLCLSLCRAFRDGRSEDFRRTRNSAEAIIHGLSSLTACQLRTIYICQFLTRIAAGKTLDAQFENDERITPLESALMIWGSIEKEHDKLHEEIQNLIKIQAIAVCMENGNFKEAEEVFERIFGDPNSHMPFKSKLLMIISQKDTFHSFFQHFSYNHMMEKIKSYVNYVLSEKSSTFLMKAAAKVVESKR
notes: Dimer by SEC-MALS; also called TRF1_(TRFH); source: E. coli BL21 (DE3), purified (Ni-NTA, amylose, ion exchange, SEC; 10% glycerol, room temperature)
Consider B2, for which the binding entry in assay [6] and in assay [7] was “binds” each time.

B3: full length TERB2 (1–220) (protein, UniProt Q8NHR7 1-220)
chain: MFQGQRGWFCGSVSQDLRQFWVAEGGTISDPRAADFLFSCDASHPDTLRIYQSLDYIEDNATVFHAYYLSAVANAKIKNSVALGHFILPPACLQKEIRRKIGSFIWEQDQHFLIEKHDEVTPNEIKTLRENSELATEHKKELSKSPEKHFIRTPVVEKQMYFPLQNYPVNNMVTGYISIDAMKKFLGELHDFIPGTSGYLAYHVQNEINMSAIKNKLKRK
On to B3, for which the binding entry in assay [1] is recorded as “binds”.
